According to the supplement of paper PMC6078165:
The reference is the same well before dosing, and untreated signal decays as well.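 Fibroblast labels denote human fibroblasts, mainly primary ones from uterus (C12385, HUF), lung (H6013), bone (Hs27A), adrenal (HADF) and skin (WS1), plus mammary HMF and breast cancer-associated Hs343T. Cancer cells are basal-like or mesenchymal-like triple-negative breast cancer lines. A hit is a response shift exceeding 3x replicate standard deviation. The tissue of the other fibroblasts is not given here.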

Tested on: Hs578T
Experiment: relative JC-1 red fluorescence (viability) vs pre-drug, coculture with fibroblast (fraction); higher = more viable cancer cells
Protocol: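 JC-1 labelled TNBC cells cocultured 1:1 (1,500 cells each) with CellTrace Violet stained primary or stromal fibroblasts in 384-well plates in FluoroBrite medium, treated with one of 42 anticancer drugs at 0.1, 1, 10 or 100 uM. JC-1 red fluorescence (mitochondrial integrity in cancer cells only) was read by plate reader every 8 h for 72 h. Values are normalised to each well's pre-drug value. The stock of one drug was tenfold lower, so its dose labels may be too high.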

O=c1[nH]cc(F)c(=O)[nH]1 [Fluorouracil]
relative JC-1 red fluorescence
Conditions | 8 h | 16 h | 24 h | 32 h | 40 h | 48 h | 56 h | 64 h | 72 h
0.1 µM | 0.889 | 0.772 | 0.7178 | 0.68 | 0.629 | 0.594 | 0.57 | 0.533 | 0.528
1 µM | 0.903 | 0.761 | 0.724 | 0.694 | 0.646 | 0.606 | 0.59 | 0.552 | 0.5377
10 µM | 0.915 | 0.791 | 0.748 | 0.707 | 0.65 | 0.614 | 0.596 | 0.5583 | 0.555
100 µM | 0.869 | 0.762 | 0.725 | 0.689 | 0.642 | 0.606 | 0.598 | 0.5688 | 0.5646

relative JC-1 red fluorescence
Conditions | 8 h | 16 h | 24 h | 32 h | 40 h | 48 h | 56 h | 64 h | 72 h
0.1 µM, coculture fibroblast: C12385 | 0.8496 | 0.73318 | 0.655 | 0.562 | 0.503 | 0.473 | 0.443 | 0.443 | 0.442
0.1 µM, coculture fibroblast: H6013 | 0.887 | 0.782 | 0.739 | 0.721 | 0.677 | 0.667 | 0.642 | 0.641 | 0.615
0.1 µM, coculture fibroblast: H6019 | 0.798 | 0.666 | 0.677 | 0.595 | 0.564 | 0.547 | 0.526 | 0.513 | 0.49
0.1 µM, coculture fibroblast: H6076 | 0.92399 | 0.8105 | 0.763 | 0.736 | 0.692 | 0.686 | 0.66 | 0.653 | 0.652
0.1 µM, coculture fibroblast: H6231 | 0.904 | 0.829 | 0.729 | 0.6937 | 0.633 | 0.604 | 0.558 | 0.526 | 0.511
0.1 µM, coculture fibroblast: HADF | 0.9107 | 0.8346 | 0.732 | 0.663 | 0.606 | 0.567 | 0.535 | 0.521 | 0.496
0.1 µM, coculture fibroblast: HCFa | 0.901 | 0.786 | 0.746 | 0.715 | 0.66 | 0.644 | 0.6216 | 0.606 | 0.579
0.1 µM, coculture fibroblast: HCPF | 0.899 | 0.807 | 0.765 | 0.7476 | 0.6954 | 0.67539 | 0.6541 | 0.6202 | 0.5966
0.1 µM, coculture fibroblast: HHSteC | 0.9147 | 0.783 | 0.74 | 0.703 | 0.652 | 0.622 | 0.597 | 0.573 | 0.535
0.1 µM, coculture fibroblast: HMF | 0.8792 | 0.763 | 0.729 | 0.709 | 0.655 | 0.638 | 0.601 | 0.584 | 0.571
0.1 µM, coculture fibroblast: HPFa | 0.92743 | 0.8586 | 0.7395 | 0.6759 | 0.625 | 0.586 | 0.54 | 0.516 | 0.466
0.1 µM, coculture fibroblast: HUF | 0.89 | 0.796 | 0.715 | 0.595 | 0.529 | 0.484 | 0.458 | 0.443 | 0.432
0.1 µM, coculture fibroblast: Hs27A | 0.874 | 0.826 | 0.777 | 0.732 | 0.689 | 0.682 | 0.659 | 0.654 | 0.615
0.1 µM, coculture fibroblast: Hs343T | 0.9048 | 0.777 | 0.7075 | 0.691 | 0.629 | 0.606 | 0.573 | 0.56 | 0.562
0.1 µM, coculture fibroblast: WS1 | 0.823 | 0.676 | 0.592 | 0.5 | 0.427 | 0.398 | 0.364 | 0.357 | 0.351
1 µM, coculture fibroblast: C12385 | 0.814 | 0.6681 | 0.649 | 0.553 | 0.5 | 0.477 | 0.453 | 0.453 | 0.458
1 µM, coculture fibroblast: H6013 | 0.906 | 0.799 | 0.74 | 0.689 | 0.633 | 0.618 | 0.592 | 0.582 | 0.553
1 µM, coculture fibroblast: H6019 | 0.774 | 0.666 | 0.634 | 0.544 | 0.502 | 0.472 | 0.445 | 0.429 | 0.406
1 µM, coculture fibroblast: H6076 | 0.9033 | 0.809 | 0.784 | 0.772 | 0.736 | 0.729 | 0.717 | 0.706 | 0.706
1 µM, coculture fibroblast: H6231 | 0.907 | 0.837 | 0.7297 | 0.6744 | 0.5994 | 0.5655 | 0.5233 | 0.491 | 0.47
1 µM, coculture fibroblast: HADF | 0.886 | 0.793 | 0.785 | 0.749 | 0.727 | 0.703 | 0.675 | 0.67 | 0.642
1 µM, coculture fibroblast: HCFa | 0.839 | 0.789 | 0.748 | 0.697 | 0.647 | 0.633 | 0.597 | 0.584 | 0.543
1 µM, coculture fibroblast: HCPF | 0.944 | 0.846 | 0.769 | 0.736 | 0.682 | 0.655 | 0.636 | 0.595 | 0.569
1 µM, coculture fibroblast: HHSteC | 0.869 | 0.803 | 0.742 | 0.695 | 0.639 | 0.604 | 0.573 | 0.544 | 0.505
1 µM, coculture fibroblast: HMF | 0.893 | 0.763 | 0.724 | 0.7 | 0.638 | 0.6062 | 0.573 | 0.549 | 0.542
1 µM, coculture fibroblast: HPFa | 0.924 | 0.816 | 0.728 | 0.662 | 0.609 | 0.566 | 0.522 | 0.492 | 0.444
1 µM, coculture fibroblast: HUF | 0.8646 | 0.745 | 0.667 | 0.56 | 0.501 | 0.46 | 0.422 | 0.4 | 0.397
1 µM, coculture fibroblast: Hs27A | 0.8656 | 0.776 | 0.715 | 0.662 | 0.609 | 0.594 | 0.556 | 0.539 | 0.496
1 µM, coculture fibroblast: Hs343T | 0.915 | 0.7846 | 0.726 | 0.704 | 0.634 | 0.598 | 0.57 | 0.5447 | 0.5384
1 µM, coculture fibroblast: WS1 | 0.796 | 0.6723 | 0.609 | 0.50579 | 0.447 | 0.423 | 0.394 | 0.3927 | 0.3966
10 µM, coculture fibroblast: C12385 | 0.826 | 0.715 | 0.655 | 0.561 | 0.495 | 0.461 | 0.423 | 0.403 | 0.391
10 µM, coculture fibroblast: H6013 | 0.903 | 0.824 | 0.773 | 0.743 | 0.704 | 0.696 | 0.669 | 0.66 | 0.637
10 µM, coculture fibroblast: H6019 | 0.782 | 0.655 | 0.669 | 0.576 | 0.55 | 0.531 | 0.511 | 0.508 | 0.5
10 µM, coculture fibroblast: H6076 | 0.877 | 0.754 | 0.73 | 0.73 | 0.682 | 0.691 | 0.676 | 0.678 | 0.68
10 µM, coculture fibroblast: H6231 | 0.8827 | 0.7899 | 0.687 | 0.667 | 0.602 | 0.578 | 0.528 | 0.503 | 0.487
10 µM, coculture fibroblast: HADF | 0.906 | 0.862 | 0.799 | 0.76 | 0.713 | 0.681 | 0.632 | 0.613 | 0.573
10 µM, coculture fibroblast: HCFa | 0.891 | 0.815 | 0.691 | 0.652 | 0.58 | 0.548 | 0.509 | 0.487 | 0.455
10 µM, coculture fibroblast: HCPF | 0.939 | 0.844 | 0.778 | 0.736 | 0.673 | 0.641 | 0.603 | 0.567 | 0.531
10 µM, coculture fibroblast: HHSteC | 0.922 | 0.805 | 0.729 | 0.674 | 0.598 | 0.556 | 0.519 | 0.493 | 0.456
10 µM, coculture fibroblast: HMF | 0.876 | 0.769 | 0.7059 | 0.688 | 0.625 | 0.601 | 0.563 | 0.548 | 0.533
10 µM, coculture fibroblast: HPFa | 0.9352 | 0.895 | 0.788 | 0.715 | 0.6758 | 0.6373 | 0.5997 | 0.5792 | 0.5366
10 µM, coculture fibroblast: HUF | 0.865 | 0.7263 | 0.698 | 0.583 | 0.514 | 0.479 | 0.446 | 0.4329 | 0.419
10 µM, coculture fibroblast: Hs27A | 0.888 | 0.828 | 0.746 | 0.702 | 0.641 | 0.62 | 0.585 | 0.575 | 0.538
10 µM, coculture fibroblast: Hs343T | 0.9162 | 0.791 | 0.719 | 0.678 | 0.609 | 0.573 | 0.525 | 0.496 | 0.475
10 µM, coculture fibroblast: WS1 | 0.838 | 0.719 | 0.675 | 0.574 | 0.521 | 0.501 | 0.471 | 0.467 | 0.4578
100 µM, coculture fibroblast: C12385 | 0.798 | 0.701 | 0.677 | 0.585 | 0.527 | 0.504 | 0.479 | 0.462 | 0.448
100 µM, coculture fibroblast: H6013 | 0.916 | 0.845 | 0.801 | 0.774 | 0.725 | 0.702 | 0.668 | 0.641 | 0.6
100 µM, coculture fibroblast: H6019 | 0.7421 | 0.668 | 0.664 | 0.5666 | 0.53105 | 0.505 | 0.484 | 0.469 | 0.451
100 µM, coculture fibroblast: H6076 | 0.939 | 0.891 | 0.842 | 0.799 | 0.735 | 0.716 | 0.685 | 0.658 | 0.648
100 µM, coculture fibroblast: H6231 | 0.882 | 0.773 | 0.7326 | 0.6934 | 0.63 | 0.607 | 0.567 | 0.544 | 0.528
100 µM, coculture fibroblast: HADF | 0.917 | 0.862 | 0.808 | 0.748 | 0.697 | 0.652 | 0.606 | 0.586 | 0.547
100 µM, coculture fibroblast: HCFa | 0.845 | 0.78 | 0.728 | 0.676 | 0.614 | 0.594 | 0.556 | 0.54 | 0.498
100 µM, coculture fibroblast: HCPF | 0.925 | 0.811 | 0.7741 | 0.735 | 0.668 | 0.646 | 0.626 | 0.582 | 0.567
100 µM, coculture fibroblast: HHSteC | 0.8465 | 0.752 | 0.68 | 0.631 | 0.579 | 0.544 | 0.523 | 0.493 | 0.46
100 µM, coculture fibroblast: HMF | 0.854 | 0.7824 | 0.75 | 0.7309 | 0.675 | 0.6449 | 0.624 | 0.604 | 0.5894
100 µM, coculture fibroblast: HPFa | 0.9355 | 0.8372 | 0.804 | 0.764 | 0.739 | 0.718 | 0.682 | 0.663 | 0.625
100 µM, coculture fibroblast: HUF | 0.859 | 0.761 | 0.727 | 0.623 | 0.562 | 0.524 | 0.487 | 0.474 | 0.466
100 µM, coculture fibroblast: Hs27A | 0.8957 | 0.855 | 0.81 | 0.777 | 0.721 | 0.698 | 0.663 | 0.65 | 0.59
100 µM, coculture fibroblast: Hs343T | 0.9019 | 0.823 | 0.776 | 0.754 | 0.686 | 0.651 | 0.625 | 0.598 | 0.574
100 µM, coculture fibroblast: WS1 | 0.758 | 0.706 | 0.676 | 0.583 | 0.53 | 0.518 | 0.492 | 0.485 | 0.479
